Source: PMC3836487
Results are given in words; binding and its absence hold for the method and conditions named. In cells and extracts the contact can be indirect. A result given as binding can be weak or reduced; the word gives no strength.

By UniProt entry, the sequences of proteins in these tests, tags left out. Where a name states a change or a piece, a line headed by the entry shows the natural chain unless it says otherwise.
UniProt B8GXP6: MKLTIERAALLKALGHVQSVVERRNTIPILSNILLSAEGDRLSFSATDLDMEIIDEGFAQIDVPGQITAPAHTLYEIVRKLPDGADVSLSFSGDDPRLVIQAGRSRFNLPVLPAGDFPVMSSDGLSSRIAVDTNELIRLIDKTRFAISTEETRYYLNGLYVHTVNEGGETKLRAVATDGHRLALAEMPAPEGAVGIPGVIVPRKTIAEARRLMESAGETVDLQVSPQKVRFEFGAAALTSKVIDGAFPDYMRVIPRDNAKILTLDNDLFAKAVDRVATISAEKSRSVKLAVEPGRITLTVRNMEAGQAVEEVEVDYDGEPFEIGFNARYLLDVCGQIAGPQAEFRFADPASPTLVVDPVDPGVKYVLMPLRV
UniProt A0A0H3C884: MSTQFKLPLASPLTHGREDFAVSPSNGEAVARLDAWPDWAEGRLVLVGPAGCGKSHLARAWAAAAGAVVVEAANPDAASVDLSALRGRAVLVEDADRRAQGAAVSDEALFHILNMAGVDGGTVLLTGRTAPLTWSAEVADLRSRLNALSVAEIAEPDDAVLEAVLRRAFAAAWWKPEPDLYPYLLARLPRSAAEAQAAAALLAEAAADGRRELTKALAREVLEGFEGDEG

Biological target: DnaN–CFP (C. crescentus) (UniProt B8GXP6)
Test: FRET or BRET; acceptor photobleaching FRET in live C. crescentus cells on 1 % agarose pads; YFP (acceptor) bleached for 20 s at 532 nm, increase of CFP (donor) emission recorded; cells grown in M2G, 0.3 % xylose for 1 h; apparent FRET efficiency, above 0.5 % taken as an interaction, above 1 % as a strong one

binding: binds
Substance: YFP–HdaA (from UniProt A0A0H3C884)
